Measurements as given in the supplement of paper PMC12024529.
Where a name gives a salt, the structure may show the parent alone. The list shows a part of the results. Baselines shift from plate to plate; read single values as rough.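 The cells are HEK293 lines stably expressing B-domain-deleted factor VIII fused to Gaussia luciferase, either wild type or a misfolding-prone missense mutant. Each score is mean luminescence from triplicate wells minus the DMSO mean, divided by the DMSO standard deviation; a score of 2 or more counts as a hit, and low scores may reflect lower secretion or poorer cell viability.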

What was measured:
HEK293 WT BDD-FVIII-Gluc = assay: secreted FVIII-Gluc luciferase Z-score vs DMSO control; higher = more FVIII-Gluc secretion; conditions: 5 µM; 24 h
[1] = test system: HEK293 p.N1941S BDD-FVIII-Gluc; assay: as above; conditions: 5 µM; 24 h

## COCCOC(=O)C1=C(C)NC(C)=C(C(=O)OC/C=C/c2ccccc2)C1c1cccc([N+](=O)[O-])c1 (stereo unspecified) [Cilnidipine]
HEK293 WT BDD-FVIII-Gluc
  secreted FVIII-Gluc luciferase Z-score: inactive: -6.42
[1]
  secreted FVIII-Gluc luciferase Z-score: inactive: -1.31

## CCCSc1nc(N[C@@H]2C[C@H]2c2ccc(F)c(F)c2)c2nnn([C@@H]3C[C@H](OCCO)[C@@H](O)[C@H]3O)c2n1 [Ticagrelor]
HEK293 WT BDD-FVIII-Gluc
  secreted FVIII-Gluc luciferase Z-score: inactive: 0.175
[1]
  secreted FVIII-Gluc luciferase Z-score: inactive: 0.0935

## CC(=O)O[C@]1(C(C)=O)CC[C@H]2[C@@H]3C=C(C)C4=CC(=O)CC[C@]4(C)[C@H]3CC[C@@]21C [Megestrol Acetate]
HEK293 WT BDD-FVIII-Gluc
  secreted FVIII-Gluc luciferase Z-score: inactive: -3.23
[1]
  secreted FVIII-Gluc luciferase Z-score: inactive: -3.18

## COc1cc(Cc2cnc(N)nc2N)cc(OC)c1OC [Trimethoprim]
HEK293 WT BDD-FVIII-Gluc
  secreted FVIII-Gluc luciferase Z-score: inactive: 1.45
[1]
  secreted FVIII-Gluc luciferase Z-score: inactive: 0.604

## CCCC(CCC)C(=O)O [Valproic acid sodium salt (Sodium valproate)]
HEK293 WT BDD-FVIII-Gluc
  secreted FVIII-Gluc luciferase Z-score: inactive: 0.143
[1]
  secreted FVIII-Gluc luciferase Z-score: active: 2.78

## CCOc1ccc2ccccc2c1C(=O)N[C@@H]1C(=O)N2[C@@H]1SC(C)(C)[C@@H]2C(=O)O [nafcillin sodium monohydrate]
HEK293 WT BDD-FVIII-Gluc
  secreted FVIII-Gluc luciferase Z-score: inactive: -0.997
[1]
  secreted FVIII-Gluc luciferase Z-score: inactive: 0.148

## COc1ccc2cc1Oc1ccc(cc1)C[C@H]1c3c(cc4c(c3Oc3cc5c(cc3OC)CCN(C)[C@@H]5C2)OCO4)CCN1C [Cepharanthine]
HEK293 WT BDD-FVIII-Gluc
  secreted FVIII-Gluc luciferase Z-score: inactive: -1.44
[1]
  secreted FVIII-Gluc luciferase Z-score: inactive: -1.2

## CN(C)[C@@H](CCOc1cccc2ccccc12)c1ccccc1 [Dapoxetine hydrochloride (Priligy)]
HEK293 WT BDD-FVIII-Gluc
  secreted FVIII-Gluc luciferase Z-score: inactive: -4.68
[1]
  secreted FVIII-Gluc luciferase Z-score: inactive: -3.09
